Assay results published in paper doi:10.1101/2021.03.02.433619.
Results are given in words; binding and its absence hold for the method and conditions named. Binding seen in cells or lysates may run through a third protein. Some results given as binding are weak or reduced against the parent protein; the word gives no strength. Sequences can lack the tags named with a protein.

T1: Flag-tagged human FAM57B (human) (UniProt Q71RH2)
T1 sequence: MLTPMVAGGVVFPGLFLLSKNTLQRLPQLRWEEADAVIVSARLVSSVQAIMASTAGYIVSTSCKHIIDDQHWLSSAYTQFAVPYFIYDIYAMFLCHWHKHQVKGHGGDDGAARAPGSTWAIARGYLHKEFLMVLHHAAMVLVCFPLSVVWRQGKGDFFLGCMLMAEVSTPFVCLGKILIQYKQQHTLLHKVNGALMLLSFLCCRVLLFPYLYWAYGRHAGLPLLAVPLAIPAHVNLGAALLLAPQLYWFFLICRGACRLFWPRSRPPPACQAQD

B1: HA-tagged human CerS2 (enzyme, UniProt Q96G23 1-380)
chain: MLQTLYDYFWWERLWLPVNLTWADLEDRDGRVYAKASDLYITLPLALLFLIVRYFFELYVATPLAALLNIKEKTRLRAPPNATLEHFYLTSGKQPKQVEVELLSRQSGLSGRQVERWFRRRRNQDRPSLLKKFREASWRFTFYLIAFIAGMAVIVDKPWFYDMKKVWEGYPIQSTIPSQYWYYMIELSFYWSLLFSIASDVKRKDFKEQIIHHVATIILISFSWFANYIRAGTLIMALHDSSDYLLESAKMFNYAGWKNTCNNIFIVFAIVFIITRLVILPFWILHCTLVYPLELYPAFFGYYFFNSMMGVLQLLHIFWAYLILRMAHKFITGKLVEDERSDREETESSEGEEAAAGGGAKSRPLANGHPILNNNHRKND
B2: HA-tagged human CerS5 (enzyme, UniProt Q8N5B7 1-392)
chain: MATAAQGPLSLLWGWLWSERFWLPENVSWADLEGPADGYGYPRGRHILSVFPLAAGIFFVRLLFERFIAKPCALCIGIEDSGPYQAQPNAILEKVFISITKYPDKKRLEGLSKQLDWNVRKIQCWFRHRRNQDKPPTLTKFCESMWRFTFYLCIFCYGIRFLWSSPWFWDIRQCWHNYPFQPLSSGLYHYYIMELAFYWSLMFSQFTDIKRKDFLIMFVHHLVTIGLISFSYINNMVRVGTLIMCLHDVSDFLLEAAKLANYAKYQRLCDTLFVIFSAVFMVTRLGIYPFWILNTTLFESWEIIGPYASWWLLNGLLLTLQLLHVIWSYLIARIALKALIRGKVSKDDRSDVESSSEEEDVTTCTKSPCDSSSSNGANRVNGHMGGSYWAEE
B3: HA-tagged human CerS6 (enzyme, UniProt Q6ZMG9 1-384)
chain: MAGILAWFWNERFWLPHNVTWADLKNTEEATFPQAEDLYLAFPLAFCIFMVRLIFERFVAKPCAIALNIQANGPQIAPPNAILEKVFTAITKHPDEKRLEGLSKQLDWDVRSIQRWFRQRRNQEKPSTLTRFCESMWRFSFYLYVFTYGVRFLKKTPWLWNTRHCWYNYPYQPLTTDLHYYYILELSFYWSLMFSQFTDIKRKDFGIMFLHHLVSIFLITFSYVNNMARVGTLVLCLHDSADALLEAAKMANYAKFQKMCDLLFVMFAVVFITTRLGIFPLWVLNTTLFESWEIVGPYPSWWVFNLLLLLVQGLNCFWSYLIVKIACKAVSRGKVSKDDRSDIESSSDEEDSEPPGKNPHTATTTNGTSGTNGYLLTGSCSMDD

target: T1, Flag-tagged human FAM57B (human); assay: co-IP

binding, binds:
B1
B2
B3
